Consider one compound from US20230357179A1, “RAF KINASE INHIBITORS AND METHODS OF USE THEREOF” (Deciphera Pharmaceuticals, LLC, priority 2021, published 2023).

The chains behind the UniProt entries cited, without tags or fusion partners. Where a name states a change or a piece, a line headed by the entry shows the natural chain unless it says otherwise. A line that says so, or that is headed by a name, gives the form on record, which may keep a tag or linker. Residues count along the entry.
UniProt P10398, 273-606 with tags or gaps Y301D/Y302D: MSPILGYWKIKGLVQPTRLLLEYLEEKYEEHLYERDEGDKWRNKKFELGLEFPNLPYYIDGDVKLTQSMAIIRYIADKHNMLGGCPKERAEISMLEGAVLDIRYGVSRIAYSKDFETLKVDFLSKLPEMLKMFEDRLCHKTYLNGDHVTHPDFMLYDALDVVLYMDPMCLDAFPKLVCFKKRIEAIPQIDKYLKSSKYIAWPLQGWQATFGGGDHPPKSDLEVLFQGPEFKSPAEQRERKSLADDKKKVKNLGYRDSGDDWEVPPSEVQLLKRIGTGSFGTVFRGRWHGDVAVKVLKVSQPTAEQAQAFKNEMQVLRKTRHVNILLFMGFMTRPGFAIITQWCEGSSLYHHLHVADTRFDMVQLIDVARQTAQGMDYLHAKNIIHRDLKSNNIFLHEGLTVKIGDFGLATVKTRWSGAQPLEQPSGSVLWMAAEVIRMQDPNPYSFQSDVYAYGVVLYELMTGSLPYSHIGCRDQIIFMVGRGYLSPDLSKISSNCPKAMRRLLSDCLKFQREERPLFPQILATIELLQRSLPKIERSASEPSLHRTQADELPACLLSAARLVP
UniProt P15056, 416-766: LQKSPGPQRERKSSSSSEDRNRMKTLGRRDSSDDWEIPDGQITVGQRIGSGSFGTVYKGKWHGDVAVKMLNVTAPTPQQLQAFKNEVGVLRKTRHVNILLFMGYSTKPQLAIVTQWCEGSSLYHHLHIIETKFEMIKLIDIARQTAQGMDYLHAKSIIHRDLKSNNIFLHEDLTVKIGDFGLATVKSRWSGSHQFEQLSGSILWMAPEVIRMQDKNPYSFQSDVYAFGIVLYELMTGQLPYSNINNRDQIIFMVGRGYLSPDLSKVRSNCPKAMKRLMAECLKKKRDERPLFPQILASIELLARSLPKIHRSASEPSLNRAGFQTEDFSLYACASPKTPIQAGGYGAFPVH
UniProt P15056, 416-766 V600E: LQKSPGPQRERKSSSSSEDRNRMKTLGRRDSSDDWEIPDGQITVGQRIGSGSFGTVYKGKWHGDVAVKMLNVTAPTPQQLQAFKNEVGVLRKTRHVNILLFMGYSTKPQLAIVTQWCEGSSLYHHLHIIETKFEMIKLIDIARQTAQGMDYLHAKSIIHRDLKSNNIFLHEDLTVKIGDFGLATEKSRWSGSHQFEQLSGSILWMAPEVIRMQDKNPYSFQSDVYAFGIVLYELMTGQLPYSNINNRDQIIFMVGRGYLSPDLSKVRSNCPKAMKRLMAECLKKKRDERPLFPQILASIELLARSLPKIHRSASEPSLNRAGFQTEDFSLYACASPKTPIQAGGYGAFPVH
UniProt P04049, 307-648 Y340D/Y341D: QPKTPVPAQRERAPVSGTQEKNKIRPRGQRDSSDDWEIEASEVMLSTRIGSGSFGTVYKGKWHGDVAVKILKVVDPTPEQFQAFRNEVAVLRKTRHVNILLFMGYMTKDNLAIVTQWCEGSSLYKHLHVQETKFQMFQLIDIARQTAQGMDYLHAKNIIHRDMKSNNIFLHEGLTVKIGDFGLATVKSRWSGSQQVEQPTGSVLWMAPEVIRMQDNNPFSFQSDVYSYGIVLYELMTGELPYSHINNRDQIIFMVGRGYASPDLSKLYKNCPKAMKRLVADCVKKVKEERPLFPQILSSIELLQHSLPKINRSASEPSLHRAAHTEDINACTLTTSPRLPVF

One experiment has as its target A-Raf kinase (Homo sapiens, UniProt P10398, Y301D/Y302D). Put plainly: Biochemical assay for A-Raf.1 (coupled pyruvate kinase/lactate dehydrogenase). Conditions: read-out: ARAF.1 IC50. The method, then: Biochemical assay for A-Raf.1
(§1) Activity of A-Raf kinase (SEQ. ID NO. 1) was determined spectroscopically using a coupled pyruvate kinase/lactate dehydrogenase assay that continuously monitors the ATP hydrolysis-dependent oxidation of NADH (e.g., Schindler et al., Science, 2000, 289, 1938-1942). Assays were conducted in 384-well plates (100 μL final volume) using 5.55 nM A-Raf (Sigma), 1.5 units pyruvate kinase, 2.1 units lactate dehydrogenase, 1 mM phosphoenol pyruvate, 0.28 mM NADH, 30.1 nM MEK (SignalChem), and 1 mM ATP in assay buffer (100 mM Tris, pH 7.5, 15 mM MgCl2, 0.5 mM DTT, 0.1% octyl-glucoside, 0.002% (w/v) BSA, and 0.002% Triton X-100). Inhibition of A-Raf was measured by adding serial diluted test compound (final assay concentration of 1% DMSO). A decrease in absorption at 340 nm was monitored continuously for 6 h at 30° C. on a multi-mode microplate reader (BioTek). The reaction rate was calculated using the 4 to 5 h time frame. The reaction rate at each concentration of compound was converted to percent inhibition using controls (i.e., reaction with no test compound and reaction with a known inhibitor) and IC50 values were calculated by fitting a four-parameter sigmoidal curve to the data using Prism (GraphPad software).

A further experiment concerns Miapaca-2 cells. Put plainly: MiaPaca-2 cell proliferation assay (1), resazurin, 96-well. Conditions: read-out: MiaPaca-2 (1) IC50, inhibition of cell proliferation. The method, then:
MiaPaca-2 Cell Proliferation Assay (1)
Miapaca-2 cells (catalog #CRL-1420) are obtained from the American Type Culture Collect (ATTC, Manassas, VA). Briefly, cells were grown in DMEM supplemented with 10% characterized fetal bovine serum (Invitrogen, Carlsbad, CA), 2.5% New Zealand sourced horse serum and 1% Penicillin/Streptomycin/L-Glutamine at 37° C., 5% CO2, and 95% humidity. Cells are expanded until reaching 70-95% confluency at which point they are subcultured or harvested for assay use. A serial dilution of test compound is dispensed into a 96-well black clear bottom plate in triplicate. Three thousand cells are added per well in 200 μL complete growth medium in the 96-well plate. Plates are incubated for 67-72 hours at 37° C., 5% CO2, and 95% humidity. At the end of the incubation, 40 μL of a 440 μM solution of resazurin (Sigma, St. Louis, MO) in PBS is added to each well of the plate and plates are incubated for an additional 5-6 hours at 37° C., 5% CO2, and 95% humidity. Plates are read on a Synergy2 or equivalent reader (Biotek, Winooski VT) using an excitation of 540 nm and an emission of 600 nm. Data is analyzed using Prism software (GraphPad, San Diego, CA) to calculate IC50 values.
A general note: Resazurin is reduced to fluorescent resorufin, in cell work by metabolically active cells.

The next experiment deals with A375 cells. Briefly: A375 cell proliferation assay (1), resazurin, 96-well. The following applies: read-out: A375 (1) IC50, inhibition of cell proliferation. The method, then:
A375 Cell Proliferation Assay (1)
A375 cells (catalog (#CRL-1619) are obtained from the American Type Culture Collect (ATTC, Manassas, VA). Briefly, cells were grown in DMEM High Glucose supplemented with 10% characterized fetal bovine serum (Invitrogen, Carlsbad, CA) and 1% Penicillin/Streptomycin/L-Glutamine at 37° C., 5% CO2, and 95% humidity. Cells are expanded until reaching 70-95% confluency at which point they are sub-cultured or harvested for assay use. A serial dilution of test compound is dispensed into a 96-well black clear bottom plate in triplicate. Two thousand five hundred cells are added per well in 200 μL complete growth medium in the 96-well plate. Plates are incubated for 67-72 hours at 37° C., 5% CO2, and 95% humidity. At the end of the incubation, 40 μL of a 440 μM solution of resazurin (Sigma, St. Louis, MO) in PBS is added to each well of the plate and plates are incubated for an additional 5-6 hours at 37° C., 5% CO2, and 95% humidity. Plates are read on a Synergy2 or equivalent reader (Biotek, Winooski VT) using an excitation of 540 nm and an emission of 600 nm. Data is analyzed using Prism software (GraphPad, San Diego, CA) to calculate IC50 values.

In another experiment the target is B-Raf (V600E) kinase (Homo sapiens, UniProt P15056, V600E). Briefly: Biochemical assay for B-Raf (V600E).1 (coupled pyruvate kinase/lactate dehydrogenase). Conditions: read-out: BRAF V600E.1 IC50. As for the experimental part: Biochemical Assay for B-Raf (V600E).1
Activity of B-Raf (V600E) (SEQ. ID NO: 4) kinase was determined spectroscopically using a coupled pyruvate kinase/lactate dehydrogenase assay that continuously monitors the ATP hydrolysis-dependent oxidation of NADH (e.g., Schindler et al., Science, 2000, 289, 1938-1942). Assays were conducted in 384-well plates (100 μL final volume) using 0.03 nM B-Raf (SignalChem), 1.5 units pyruvate kinase, 2.1 units lactate dehydrogenase, 1 mM phosphoenol pyruvate, 0.28 mM NADH, 30.1 nM MEK (SignalChem), and 1 mM ATP in assay buffer (100 mM Tris, pH 7.5, 15 mM MgCl2, 0.5 mM DTT, 0.1% octyl-glucoside, 0.002% (w/v) BSA, and 0.002% Triton X-100). Inhibition of B-Raf (V600E) was measured by adding serial diluted test compound (final assay concentration of 1% DMSO). A decrease in absorption at 340 nm was monitored continuously for 6 h at 30° C. on a multi-mode microplate reader (BioTek). The reaction rate was calculated using the 3 to 4 h time frame. The reaction rate at each concentration of compound was converted to percent inhibition using controls (i.e., reaction with no test compound and reaction with a known inhibitor) and IC50 values were calculated by fitting a four-parameter sigmoidal curve to the data using Prism (GraphPad software).

The next experiment has as its target B-Raf kinase (Homo sapiens, UniProt P15056). Briefly: Biochemical assay for B-Raf.1 (coupled pyruvate kinase/lactate dehydrogenase). The following applies: read-out: BRAF.1 IC50. As for the experimental part: Biochemical Assay for B-Raf.1
as §1, with “B-Raf” for “A-Raf”, “NO: 2)” for “NO. 1)”, “0.13” for “5.55”

The next experiment has as its target C-Raf kinase (Homo sapiens, UniProt P04049, Y340D/Y341D). Put plainly: Biochemical assay for C-Raf.1 (coupled pyruvate kinase/lactate dehydrogenase). The following applies: read-out: CRAF.1 IC50. As for the experimental part:
Biochemical Assay for C-Raf.1
as §1, with “C-Raf” for “A-Raf”, “NO: 3)” for “NO. 1)”, “0.43” for “5.55”

The match of structure and compound is tentative.

As to `Cc1cc(F)c(NC(=O)NCCC(C)(C)C)cc1-c1cc(OCCO)nc(C2=CCOCC2)c1` [Example 7], the IC50 on A-Raf kinase was more than 1000 nM; with Miapaca-2 cells, 1 to 10 µM; in the experiment on A375 cells, 100 to 500 nM; at B-Raf (V600E) kinase, less than 100 nM; at B-Raf kinase, less than 100 nM; at C-Raf kinase it was less than 100 nM.
